# Data from the supplement of paper PMC8728848.
# Some of the results follow.
# B1: pullulanase (Streptococcus pyogenes), Q8KLP1 (protein)
# chain: MKKKVNQGSKRYQYLLKKWGIGFVIAATGTVMLGCIPSILTHQVAAKTIVGLARDEAQQGDGNAKSGDGFQSSSKEAKPVLDSSSANPASIAEHHLRMHFKTLPAGESLGSLGLWVWGDVDQPSKDWPNGAITMTKAKKDDYGYYLDVPLAAKHRQQVSYLINNKAGENLSKDQHIPLLTPKMNEVWIDENYHAHAYRPLKKGYLRINYHNQSGHYDNLAVWTFKDVKTPTTDWPNGLDLSHKGPYGAYVDVPLKEGANEIGFLILDKSKTGDAIKVQPKDYLFKELDNHTQVFVKDTDPKVYNNPYYIDQVSLKGAEQTTPNEIKAIFTTLDGLDEDAVKQNIKITDKAGKTVAIDELTLDKDKSVMTLKGDFKAQGAVYTVTFGEVSQVARQSWQLKDKLYAYDGELGATLAKDGSVDLALWSPSADSVKVVVYDKQDQTKVVGQADLTKSDKGVWRAHLTSDSVKGISDYTGYYYLYEITRGQEKVMVLDPYAKSLAAWNDATATDDIKTAKAAFIDPSKLGPTGLDFAKINNFKKREDAIIYEAHVRDFTSDKALEGKLTHPFGTFSAFVEQLDYLKDLGVTHVQLLPVLSYFYANELDKTRSTAYTSSDNNYNWGYDPQHYFALSGMYSANPNDPALRIAELKNLVNEIHKRGMGVIFDVVYNHTARTYLFEDLEPNYYHFMNADGTARESFGGGRLGTTHAMSRRILVDSITYLTREFKVDGFRFDMMGDHDAAAIEQAFKAAKAINPNTIMIGEGWRTYQGDEGKKEIAADQDWMKATNTVGVFSDDIRNTLKSGFPNEGTAAFITGGAKNLEGLFKTIKAQPSNFEADAPGDVVQYIAAHDNLTLHDVIAKSINKDPKVAEEEIHKRIRLGNTMILTAQGTAFIHSGQEYGRTKQLLNPDYKTKVSDDKVPNKATLIDAVAQYPYFIHDSYDSSDAVNHFDWAKATDSIAHPISNQTKAYTQGLIALRRSTDAFTKATKAEVDRDVTLITQAGQDGIQQEDLIMGYQTVASNGDRYAVFVNADNKTRKVVLPQAYRYLLGAQVLADAEQVGVTAIAKPKGVQFTKEGLTIDGLTALVLKVSSKTANPSQQKSQTDNHQTKTPDGSKDLDKSLMTRPKRAKTNQKLPKTGEAPSKGLLAAGVALLLLAISLLMKRQKD
# Key:
# Experiment in all cases: glycan array binding signal (z-score within array); higher = stronger binding
# Settings in all cases: glycan notation: IUPAC condensed, linker removed
# [1] = target: Fuc(a1-2)[GalNAc(a1-3)]Gal(b1-4)GlcNAc(b1-3)GalNAc
# Summary of the method: (§1)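 Glycan array binding is given as a within-array Z-score, which can be read as non-binding when negative. The arrays, 3228 of them, came from the Consortium for Functional Glycomics database and were retained only where the protein sequence was available. Z-scores were averaged across arrays of the same protein sequence at different concentrations or buffers and across linkers.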
# [2] = target: Fuc(a1-2)[GalNAc(a1-3)]Gal(b1-4)[Fuc(a1-3)]GlcNAc
# Summary of the method: as §1
# [3] = target: Fuc(a1-2)[GalNAc(a1-3)]Gal(b1-4)[Fuc(a1-3)]GlcNAc(b1-3)GalNAc
# Summary of the method: as §1
# [4] = target: Fuc(a1-2)[GalNAc(a1-4)]Gal(b1-4)GlcNAc
# Summary of the method: as §1
# [5] = target: Fuc(a1-2)[GalNAc(b1-3)]Gal
# Summary of the method: as §1
# Fuc(a1-3)GlcNAc = target: Fuc(a1-3)GlcNAc
# Summary of the method: as §1
# [6] = target: Fuc(a1-3)[Gal(b1-4)]Glc6S
# Summary of the method: as §1
# [7] = target: Fuc(a1-3)[Gal(b1-4)]GlcNAc
# Summary of the method: as §1
# [8] = target: Fuc(a1-3)[Gal(b1-4)]GlcNAc(b1-2)Man(a1-3)[Fuc(a1-3)[Gal(b1-4)]GlcNAc(b1-2)Man(a1-6)]Man(b1-4)GlcNAc(b1-4)GlcNAc
# Summary of the method: as §1
# [9] = target: Fuc(a1-3)[Gal(b1-4)]GlcNAc(b1-2)Man(a1-3)[Fuc(a1-3)[Gal(b1-4)]GlcNAc(b1-2)Man(a1-6)]Man(b1-4)GlcNAc(b1-4)[Fuc(a1-6)]GlcNAc
# Summary of the method: as §1
# [10] = target: Fuc(a1-3)[Gal(b1-4)]GlcNAc(b1-3)Gal(b1-3)[Fuc(a1-4)]GlcNAc
# Summary of the method: as §1
# [11] = target: Fuc(a1-3)[Gal(b1-4)]GlcNAc(b1-3)GalNAc
# Summary of the method: as §1
# [12] = target: Fuc(a1-3)[Gal(b1-4)]GlcNAc(b1-4)Gal(b1-4)[Fuc(a1-3)]GlcNAc
# Summary of the method: as §1
# [13] = target: Fuc(a1-3)[Gal(b1-4)]GlcNAc(b1-4)Gal(b1-4)[Fuc(a1-3)]GlcNAc(b1-4)Gal(b1-4)[Fuc(a1-3)]GlcNAc
# Summary of the method: as §1
# [14] = target: Fuc(a1-3)[Gal(b1-4)]GlcNAc(b1-6)[Gal(b1-3)GlcNAc(b1-3)]Gal(b1-4)Glc
# Summary of the method: as §1
# [15] = target: Fuc(a1-3)[Gal(b1-4)]GlcNAc6S
# Summary of the method: as §1
# [16] = target: Fuc(a1-3)[Gal3S(b1-4)]GlcNAc
# Summary of the method: as §1
# [17] = target: Fuc(a1-3)[Gal3S(b1-4)]GlcNAc6S
# Summary of the method: as §1
# [18] = target: Fuc(a1-3)[GalNAc(b1-4)]GlcNAc
# Summary of the method: as §1
# Fuc(a1-4)GlcNAc = target: Fuc(a1-4)GlcNAc
# Summary of the method: as §1
# Fuc(b1-3)GlcNAc = target: Fuc(b1-3)GlcNAc
# Summary of the method: as §1
# Gal(a1-2)Gal = target: Gal(a1-2)Gal
# Summary of the method: as §1
# Gal(a1-3)Gal = target: Gal(a1-3)Gal
# Summary of the method: as §1
# Gal(a1-3)Gal(b1-3)GlcNAc = target: Gal(a1-3)Gal(b1-3)GlcNAc
# Summary of the method: as §1
# [19] = target: Gal(a1-3)Gal(b1-3)GlcNAc(b1-2)Man(a1-3)[Gal(a1-3)Gal(b1-3)GlcNAc(b1-2)Man(a1-6)]Man(b1-4)GlcNAc(b1-4)GlcNAc
# Summary of the method: as §1
# [20] = target: Gal(a1-3)Gal(b1-3)GlcNAc(b1-3)GalNAc
# Summary of the method: as §1
# [21] = target: Gal(a1-3)Gal(b1-3)[Fuc(a1-4)]GlcNAc(b1-2)Man(a1-3)[Gal(a1-3)Gal(b1-3)[Fuc(a1-4)]GlcNAc(b1-2)Man(a1-6)]Man(b1-4)GlcNAc(b1-4)GlcNAc
# Summary of the method: as §1
# Gal(a1-3)Gal(b1-4)Glc = target: Gal(a1-3)Gal(b1-4)Glc
# Summary of the method: as §1
# Gal(a1-3)Gal(b1-4)GlcNAc = target: Gal(a1-3)Gal(b1-4)GlcNAc
# Summary of the method: as §1
# [22] = target: Gal(a1-3)Gal(b1-4)GlcNAc(b1-3)GalNAc
# Summary of the method: as §1
# [23] = target: Gal(a1-3)Gal(b1-4)[Fuc(a1-3)]GlcNAc
# Summary of the method: as §1
# [24] = target: Gal(a1-3)Gal(b1-4)[Fuc(a1-3)]GlcNAc(b1-2)Man(a1-3)[Gal(a1-3)Gal(b1-4)[Fuc(a1-3)]GlcNAc(b1-2)Man(a1-6)]Man(b1-4)GlcNAc(b1-4)GlcNAc
# Summary of the method: as §1
# Gal(a1-3)GalNAc = target: Gal(a1-3)GalNAc
# Summary of the method: as §1
# [25] = target: Gal(a1-3)[Gal(a1-4)]Gal(b1-4)GlcNAc
# Summary of the method: as §1
# [26] = target: Gal(a1-4)Gal(b1-3)GlcNAc(b1-2)Man(a1-3)[Gal(a1-4)Gal(b1-3)GlcNAc(b1-2)Man(a1-6)]Man(b1-4)GlcNAc(b1-4)GlcNAc
# Summary of the method: as §1
# Gal(a1-4)Gal(b1-4)Glc = target: Gal(a1-4)Gal(b1-4)Glc
# Summary of the method: as §1
# Gal(a1-4)Gal(b1-4)GlcNAc = target: Gal(a1-4)Gal(b1-4)GlcNAc
# Summary of the method: as §1
# [27] = target: Gal(a1-4)Gal(b1-4)GlcNAc(b1-2)Man(a1-3)[Gal(a1-4)Gal(b1-4)GlcNAc(b1-2)Man(a1-6)]Man(b1-4)GlcNAc(b1-4)GlcNAc
# Summary of the method: as §1
# [28] = target: Gal(a1-4)Gal(b1-4)GlcNAc(b1-3)Gal(b1-4)Glc
# Summary of the method: as §1
# Gal(a1-4)GlcNAc = target: Gal(a1-4)GlcNAc
# Summary of the method: as §1
# Gal(a1-6)Glc = target: Gal(a1-6)Glc
# Summary of the method: as §1
# Gal(b1-2)Gal = target: Gal(b1-2)Gal
# Summary of the method: as §1
# Gal(b1-3)Gal = target: Gal(b1-3)Gal
# Summary of the method: as §1
# Gal(b1-3)Gal(b1-4)GlcNAc = target: Gal(b1-3)Gal(b1-4)GlcNAc
# Summary of the method: as §1
# [29] = target: Gal(b1-3)Gal(b1-4)GlcNAc(b1-2)Man(a1-3)[Gal(b1-3)Gal(b1-4)GlcNAc(b1-2)Man(a1-6)]Man(b1-4)GlcNAc(b1-4)GlcNAc
# Summary of the method: as §1
binder,measurement,setting,value
B1,glycan array binding signal (z-score),[1],0.614
same,glycan array binding signal (z-score),[2],-0.025
same,glycan array binding signal (z-score),[3],1.05
same,glycan array binding signal (z-score),[4],2.36
same,glycan array binding signal (z-score),[5],-0.628
same,glycan array binding signal (z-score),Fuc(a1-3)GlcNAc,-0.696
same,glycan array binding signal (z-score),[6],-0.252
same,glycan array binding signal (z-score),[7],0.546
same,glycan array binding signal (z-score),[8],0.313
same,glycan array binding signal (z-score),[9],-0.639
same,glycan array binding signal (z-score),[10],0.5
same,glycan array binding signal (z-score),[11],0.189
same,glycan array binding signal (z-score),[12],1.24
same,glycan array binding signal (z-score),[13],0.241
same,glycan array binding signal (z-score),[14],1.06
same,glycan array binding signal (z-score),[15],0.34
same,glycan array binding signal (z-score),[16],0.116
same,glycan array binding signal (z-score),[17],0.403
same,glycan array binding signal (z-score),[18],0.271
same,glycan array binding signal (z-score),Fuc(a1-4)GlcNAc,-0.782
same,glycan array binding signal (z-score),Fuc(b1-3)GlcNAc,-0.226
same,glycan array binding signal (z-score),Gal(a1-2)Gal,-0.584
same,glycan array binding signal (z-score),Gal(a1-3)Gal,-0.497
same,glycan array binding signal (z-score),Gal(a1-3)Gal(b1-3)GlcNAc,0.157
same,glycan array binding signal (z-score),[19],1.51
same,glycan array binding signal (z-score),[20],0.955
same,glycan array binding signal (z-score),[21],1.74
same,glycan array binding signal (z-score),Gal(a1-3)Gal(b1-4)Glc,-1.73
same,glycan array binding signal (z-score),Gal(a1-3)Gal(b1-4)GlcNAc,-0.385
same,glycan array binding signal (z-score),[22],-0.911
same,glycan array binding signal (z-score),[23],-0.126
same,glycan array binding signal (z-score),[24],-0.917
same,glycan array binding signal (z-score),Gal(a1-3)GalNAc,-0.591
same,glycan array binding signal (z-score),[25],-0.833
same,glycan array binding signal (z-score),[26],0.108
same,glycan array binding signal (z-score),Gal(a1-4)Gal(b1-4)Glc,1.29
same,glycan array binding signal (z-score),Gal(a1-4)Gal(b1-4)GlcNAc,0.461
same,glycan array binding signal (z-score),[27],-0.805
same,glycan array binding signal (z-score),[28],0.422
same,glycan array binding signal (z-score),Gal(a1-4)GlcNAc,-0.9
same,glycan array binding signal (z-score),Gal(a1-6)Glc,-1.44
same,glycan array binding signal (z-score),Gal(b1-2)Gal,-0.194
same,glycan array binding signal (z-score),Gal(b1-3)Gal,0.341
same,glycan array binding signal (z-score),Gal(b1-3)Gal(b1-4)GlcNAc,-0.831
same,glycan array binding signal (z-score),[29],-0.476

# Part of the list above, tab-delimited:
binder	measurement	setting	value
B1	glycan array binding signal (z-score)	[22]	-0.911
same	glycan array binding signal (z-score)	[23]	-0.126
